# The other results are listed elsewhere or left out. Small differences around the control level are noise.
# Sequences of proteins named here, by UniProt entry; tags and fusion partners are left off. A change or cut given only in a name is not applied to a line headed by its entry.
# UniProt P53992: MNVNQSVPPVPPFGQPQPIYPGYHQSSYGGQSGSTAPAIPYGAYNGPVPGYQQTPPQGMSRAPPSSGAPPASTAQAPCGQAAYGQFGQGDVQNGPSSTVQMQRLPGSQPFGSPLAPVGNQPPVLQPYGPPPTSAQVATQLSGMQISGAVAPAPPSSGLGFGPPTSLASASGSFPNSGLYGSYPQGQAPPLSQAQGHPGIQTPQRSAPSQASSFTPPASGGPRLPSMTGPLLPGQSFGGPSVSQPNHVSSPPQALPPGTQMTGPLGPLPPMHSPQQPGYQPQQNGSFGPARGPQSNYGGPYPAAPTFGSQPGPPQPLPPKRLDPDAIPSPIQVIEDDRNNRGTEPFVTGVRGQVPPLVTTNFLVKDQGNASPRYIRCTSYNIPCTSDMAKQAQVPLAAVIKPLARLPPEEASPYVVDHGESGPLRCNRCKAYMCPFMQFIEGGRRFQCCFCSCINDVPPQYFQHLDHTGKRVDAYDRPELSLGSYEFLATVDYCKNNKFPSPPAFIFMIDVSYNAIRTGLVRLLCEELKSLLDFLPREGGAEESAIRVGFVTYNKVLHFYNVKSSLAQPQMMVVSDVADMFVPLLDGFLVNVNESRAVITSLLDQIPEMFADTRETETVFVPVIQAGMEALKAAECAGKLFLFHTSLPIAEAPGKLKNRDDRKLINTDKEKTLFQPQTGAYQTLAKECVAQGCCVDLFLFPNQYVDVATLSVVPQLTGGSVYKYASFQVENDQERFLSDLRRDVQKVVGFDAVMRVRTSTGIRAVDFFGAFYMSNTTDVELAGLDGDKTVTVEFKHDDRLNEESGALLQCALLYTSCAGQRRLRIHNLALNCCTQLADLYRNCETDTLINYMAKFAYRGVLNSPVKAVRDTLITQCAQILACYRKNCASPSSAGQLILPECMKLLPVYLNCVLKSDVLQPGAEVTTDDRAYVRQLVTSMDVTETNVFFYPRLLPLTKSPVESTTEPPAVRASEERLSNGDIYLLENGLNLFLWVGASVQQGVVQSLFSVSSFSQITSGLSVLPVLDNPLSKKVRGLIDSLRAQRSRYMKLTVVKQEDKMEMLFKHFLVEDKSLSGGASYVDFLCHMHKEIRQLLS
# UniProt P51608, whole entry: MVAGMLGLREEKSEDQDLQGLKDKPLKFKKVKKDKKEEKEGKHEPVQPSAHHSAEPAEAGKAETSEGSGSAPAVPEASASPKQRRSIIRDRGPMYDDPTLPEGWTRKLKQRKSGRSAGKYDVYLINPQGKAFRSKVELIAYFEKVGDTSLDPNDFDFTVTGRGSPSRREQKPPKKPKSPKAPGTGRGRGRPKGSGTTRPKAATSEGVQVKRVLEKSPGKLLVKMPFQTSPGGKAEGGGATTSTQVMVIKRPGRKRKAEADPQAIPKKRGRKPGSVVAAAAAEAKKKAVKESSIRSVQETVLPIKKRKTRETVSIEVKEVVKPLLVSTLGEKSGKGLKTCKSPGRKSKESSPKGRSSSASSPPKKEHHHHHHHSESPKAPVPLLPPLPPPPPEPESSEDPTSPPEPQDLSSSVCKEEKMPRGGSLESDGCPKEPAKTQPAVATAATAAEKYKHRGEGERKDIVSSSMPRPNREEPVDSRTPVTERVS
# UniProt P51970, whole entry: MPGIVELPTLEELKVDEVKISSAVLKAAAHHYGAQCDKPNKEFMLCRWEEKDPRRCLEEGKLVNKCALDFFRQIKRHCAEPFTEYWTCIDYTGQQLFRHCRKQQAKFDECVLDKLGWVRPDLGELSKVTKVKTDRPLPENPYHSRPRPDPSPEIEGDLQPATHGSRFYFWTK
# UniProt P46734: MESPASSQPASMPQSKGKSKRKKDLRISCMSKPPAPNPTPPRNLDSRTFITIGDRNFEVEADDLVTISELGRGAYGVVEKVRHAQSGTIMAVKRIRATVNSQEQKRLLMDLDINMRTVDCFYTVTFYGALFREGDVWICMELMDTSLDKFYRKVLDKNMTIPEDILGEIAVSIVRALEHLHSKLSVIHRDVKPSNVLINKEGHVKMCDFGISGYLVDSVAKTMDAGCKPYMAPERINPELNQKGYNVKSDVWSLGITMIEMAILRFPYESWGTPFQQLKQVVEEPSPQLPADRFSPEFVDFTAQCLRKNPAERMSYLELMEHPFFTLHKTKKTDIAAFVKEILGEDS
# UniProt P51452: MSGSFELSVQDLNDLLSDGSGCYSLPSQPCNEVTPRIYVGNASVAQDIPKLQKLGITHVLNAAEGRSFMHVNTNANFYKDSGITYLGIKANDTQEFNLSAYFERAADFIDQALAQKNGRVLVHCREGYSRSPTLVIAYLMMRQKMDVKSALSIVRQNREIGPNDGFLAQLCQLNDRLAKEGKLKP
# UniProt P48736: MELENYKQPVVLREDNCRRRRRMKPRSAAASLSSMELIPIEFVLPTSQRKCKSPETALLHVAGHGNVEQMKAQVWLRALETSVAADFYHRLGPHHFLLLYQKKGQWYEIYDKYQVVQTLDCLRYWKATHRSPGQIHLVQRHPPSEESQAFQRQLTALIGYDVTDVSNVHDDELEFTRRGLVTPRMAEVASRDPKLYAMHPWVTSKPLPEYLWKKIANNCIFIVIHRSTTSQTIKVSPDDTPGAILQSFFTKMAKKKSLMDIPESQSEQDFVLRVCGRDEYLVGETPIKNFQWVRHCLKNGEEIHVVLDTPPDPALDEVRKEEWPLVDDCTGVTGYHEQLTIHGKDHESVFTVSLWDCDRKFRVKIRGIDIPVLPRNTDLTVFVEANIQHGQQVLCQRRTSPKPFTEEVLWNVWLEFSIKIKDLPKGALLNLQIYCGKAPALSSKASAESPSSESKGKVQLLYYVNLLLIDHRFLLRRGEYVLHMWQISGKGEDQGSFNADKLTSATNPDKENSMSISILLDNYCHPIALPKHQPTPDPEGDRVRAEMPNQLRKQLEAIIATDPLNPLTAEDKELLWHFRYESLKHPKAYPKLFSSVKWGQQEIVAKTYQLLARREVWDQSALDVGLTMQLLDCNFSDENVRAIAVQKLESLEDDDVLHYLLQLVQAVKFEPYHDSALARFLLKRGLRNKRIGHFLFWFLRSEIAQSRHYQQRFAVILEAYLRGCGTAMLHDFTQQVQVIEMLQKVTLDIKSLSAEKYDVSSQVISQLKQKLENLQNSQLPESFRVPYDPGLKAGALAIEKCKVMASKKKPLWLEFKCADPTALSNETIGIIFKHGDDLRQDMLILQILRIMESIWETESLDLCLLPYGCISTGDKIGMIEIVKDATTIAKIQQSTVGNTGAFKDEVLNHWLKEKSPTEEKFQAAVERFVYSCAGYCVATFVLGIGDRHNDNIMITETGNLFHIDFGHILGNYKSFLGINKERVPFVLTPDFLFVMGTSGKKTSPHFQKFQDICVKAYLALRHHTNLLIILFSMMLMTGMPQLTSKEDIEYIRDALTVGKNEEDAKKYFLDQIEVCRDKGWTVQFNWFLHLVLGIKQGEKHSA
# UniProt P54578: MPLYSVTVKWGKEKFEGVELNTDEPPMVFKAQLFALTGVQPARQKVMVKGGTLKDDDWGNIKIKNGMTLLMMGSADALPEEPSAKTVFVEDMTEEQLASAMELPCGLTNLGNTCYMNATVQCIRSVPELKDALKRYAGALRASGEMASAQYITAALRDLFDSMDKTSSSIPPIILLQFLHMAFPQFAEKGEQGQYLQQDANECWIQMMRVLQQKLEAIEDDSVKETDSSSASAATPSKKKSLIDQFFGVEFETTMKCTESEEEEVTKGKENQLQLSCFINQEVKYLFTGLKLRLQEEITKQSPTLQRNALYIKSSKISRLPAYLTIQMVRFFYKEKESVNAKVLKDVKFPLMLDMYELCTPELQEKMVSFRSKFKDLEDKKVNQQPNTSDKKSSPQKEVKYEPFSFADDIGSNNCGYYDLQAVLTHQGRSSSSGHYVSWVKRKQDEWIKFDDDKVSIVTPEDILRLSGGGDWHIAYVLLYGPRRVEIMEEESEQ
# UniProt P54198, whole entry: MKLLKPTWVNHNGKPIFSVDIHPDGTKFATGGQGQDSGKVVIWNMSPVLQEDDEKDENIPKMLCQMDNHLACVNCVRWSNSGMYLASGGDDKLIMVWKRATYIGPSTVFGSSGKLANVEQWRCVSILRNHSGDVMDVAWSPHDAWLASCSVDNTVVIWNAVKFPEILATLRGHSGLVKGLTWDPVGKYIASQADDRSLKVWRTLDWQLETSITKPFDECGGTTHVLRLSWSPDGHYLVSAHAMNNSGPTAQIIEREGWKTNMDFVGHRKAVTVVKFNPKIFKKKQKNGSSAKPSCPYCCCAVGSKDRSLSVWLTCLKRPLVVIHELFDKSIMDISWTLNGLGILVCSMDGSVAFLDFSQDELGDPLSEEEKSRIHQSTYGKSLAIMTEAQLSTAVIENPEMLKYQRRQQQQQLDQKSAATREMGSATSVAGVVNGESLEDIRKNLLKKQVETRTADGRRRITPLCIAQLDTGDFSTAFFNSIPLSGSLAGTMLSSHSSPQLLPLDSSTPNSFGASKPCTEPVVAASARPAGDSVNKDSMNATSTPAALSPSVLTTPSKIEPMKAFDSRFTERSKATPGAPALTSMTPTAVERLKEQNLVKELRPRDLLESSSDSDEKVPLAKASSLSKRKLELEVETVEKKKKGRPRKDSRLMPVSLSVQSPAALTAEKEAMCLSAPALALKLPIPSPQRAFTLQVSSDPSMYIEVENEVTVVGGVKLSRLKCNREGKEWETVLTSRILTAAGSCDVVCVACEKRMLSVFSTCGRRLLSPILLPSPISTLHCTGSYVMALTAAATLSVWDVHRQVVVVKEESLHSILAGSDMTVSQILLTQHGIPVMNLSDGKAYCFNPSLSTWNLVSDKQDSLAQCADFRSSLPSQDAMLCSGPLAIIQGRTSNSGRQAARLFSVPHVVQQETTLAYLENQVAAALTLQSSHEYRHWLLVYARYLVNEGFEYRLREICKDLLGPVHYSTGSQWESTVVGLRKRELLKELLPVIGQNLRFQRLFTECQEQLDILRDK
# UniProt P52306: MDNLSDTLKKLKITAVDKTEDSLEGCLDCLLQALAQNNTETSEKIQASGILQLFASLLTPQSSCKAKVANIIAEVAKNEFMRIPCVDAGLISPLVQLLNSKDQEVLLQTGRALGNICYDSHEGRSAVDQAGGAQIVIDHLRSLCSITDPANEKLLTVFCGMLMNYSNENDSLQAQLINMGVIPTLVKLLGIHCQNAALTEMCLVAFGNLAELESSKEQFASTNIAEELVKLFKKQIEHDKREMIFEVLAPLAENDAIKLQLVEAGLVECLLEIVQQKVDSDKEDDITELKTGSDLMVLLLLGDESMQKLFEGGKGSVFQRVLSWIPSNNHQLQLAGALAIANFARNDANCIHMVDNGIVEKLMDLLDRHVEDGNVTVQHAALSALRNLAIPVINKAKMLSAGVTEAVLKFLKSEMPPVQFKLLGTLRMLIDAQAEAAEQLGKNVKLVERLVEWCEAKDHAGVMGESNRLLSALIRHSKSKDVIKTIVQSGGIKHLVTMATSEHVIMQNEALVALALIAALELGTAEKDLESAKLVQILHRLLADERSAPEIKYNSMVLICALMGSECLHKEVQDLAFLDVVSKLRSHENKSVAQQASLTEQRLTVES
# UniProt P53602: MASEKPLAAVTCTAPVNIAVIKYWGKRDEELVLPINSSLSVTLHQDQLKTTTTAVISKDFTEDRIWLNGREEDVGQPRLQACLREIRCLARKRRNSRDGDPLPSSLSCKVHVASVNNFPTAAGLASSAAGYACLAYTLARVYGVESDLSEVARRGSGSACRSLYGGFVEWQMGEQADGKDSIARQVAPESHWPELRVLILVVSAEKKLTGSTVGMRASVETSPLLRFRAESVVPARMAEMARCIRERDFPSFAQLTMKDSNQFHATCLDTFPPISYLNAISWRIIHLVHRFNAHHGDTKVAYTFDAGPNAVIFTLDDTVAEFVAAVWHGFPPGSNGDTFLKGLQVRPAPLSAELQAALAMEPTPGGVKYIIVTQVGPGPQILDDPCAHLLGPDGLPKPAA
# UniProt P51397: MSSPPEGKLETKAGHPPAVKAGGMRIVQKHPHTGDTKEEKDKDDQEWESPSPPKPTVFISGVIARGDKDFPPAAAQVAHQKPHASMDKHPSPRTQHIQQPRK
# UniProt P51911: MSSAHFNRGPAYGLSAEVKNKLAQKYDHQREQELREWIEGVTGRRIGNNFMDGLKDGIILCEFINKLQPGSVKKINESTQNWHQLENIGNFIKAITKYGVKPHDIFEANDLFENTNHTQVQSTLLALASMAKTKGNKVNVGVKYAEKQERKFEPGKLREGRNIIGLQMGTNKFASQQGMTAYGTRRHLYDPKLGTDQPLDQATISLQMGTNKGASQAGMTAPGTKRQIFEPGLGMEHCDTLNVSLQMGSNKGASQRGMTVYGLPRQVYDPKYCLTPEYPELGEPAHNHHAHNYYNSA
# UniProt P48507: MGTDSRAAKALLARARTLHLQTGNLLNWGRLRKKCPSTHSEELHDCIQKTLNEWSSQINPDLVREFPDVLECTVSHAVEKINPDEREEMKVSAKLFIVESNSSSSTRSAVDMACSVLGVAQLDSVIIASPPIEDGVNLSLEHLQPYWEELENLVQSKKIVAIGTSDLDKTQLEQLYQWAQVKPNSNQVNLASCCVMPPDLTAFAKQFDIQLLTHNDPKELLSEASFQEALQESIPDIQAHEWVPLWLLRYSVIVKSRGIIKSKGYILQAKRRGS
# Compound: CN[C@@H]1C[C@H]2O[C@@](C)([C@@H]1OC)n1c3ccccc3c3c4c(c5c6ccccc6n2c5c31)C(=O)NC4 [staurosporine]
# Experiment: log2 fold change of tryptic peptide abundance, ligand vs vehicle (limited proteolysis) (log2 ratio); higher = more trypsin-susceptible (destabilized)
# Conditions: ligand concentration: 20 uM; sample: K562 cleared lysate; digestion: 4 min, 22 C (HT-PELSA RT4min, Orbitrap Astral)
row,Target,log2 fold change
1,"AP3M2 (peptide sequence: ELIKPPTILR, peptide start residue: 132) (UniProt P53677)",0.0916
2,"SEC24C (peptide sequence: LRIHNLALNCCTQLADLYR, peptide start residue: 822) (UniProt P53992)",-0.658
3,"UniProt P54792 (peptide sequence: LPCFNGR, peptide start residue: 78)",-0.113
4,"MAP1B (peptide sequence: ASTTLDIKDSISAVSSEK, peptide start residue: 1233) (UniProt P46821)",-0.323
5,"SMTN (peptide sequence: AGSLAALEKR, peptide start residue: 732) (UniProt P53814)",0.563
6,"PXN (peptide sequence: ELDELMASLSDFK, peptide start residue: 265) (UniProt P49023)",-0.456
7,"PLCD1 (peptide sequence: LQHWIHSCLR, peptide start residue: 141) (UniProt P51178)",0.201
8,"MECP2 (peptide sequence: SAGKYDVYLINPQGK, peptide start residue: 116) (UniProt P51608)",-0.209
9,"CRK (peptide sequence: ALFDFNGNDEEDLPFKK, peptide start residue: 139) (UniProt P46108)",-0.172
10,"NDUFA8 (peptide sequence: TDRPLPENPYHSR, peptide start residue: 133) (UniProt P51970)",-0.18
11,"UniProt P46734 (peptide sequence: LLMDLDINMR, peptide start residue: 107)",0.109
12,"STAT5B (peptide sequence: ATQLLEGLVQELQK, peptide start residue: 57) (UniProt P51692)",0.11
13,"DUSP3 (peptide sequence: AADFIDQALAQK, peptide start residue: 105) (UniProt P51452)",0.112
14,"TMED10 (peptide sequence: IPDQLVILDMK, peptide start residue: 117) (UniProt P49755)",-0.0757
15,"AFF1 (peptide sequence: ITLDLLSR, peptide start residue: 765) (UniProt P51825)",0.636
16,"PIK3CG (peptide sequence: ASAESPSSESK, peptide start residue: 445) (UniProt P48736)",-0.232
17,"USP14 (peptide sequence: SSSSGHYVSWVKR, peptide start residue: 430) (UniProt P54578)",0.465
18,"HIRA (peptide sequence: GLTWDPVGK, peptide start residue: 179) (UniProt P54198)",0.354

# In another format: results already given
row	Target	log2 fold change
7	PLCD1 (peptide sequence: LQHWIHSCLR, peptide start residue: 141) (UniProt P51178)	0.201
8	MECP2 (peptide sequence: SAGKYDVYLINPQGK, peptide start residue: 116) (UniProt P51608)	-0.209
9	CRK (peptide sequence: ALFDFNGNDEEDLPFKK, peptide start residue: 139) (UniProt P46108)	-0.172

# Next results:

row,Target,log2 fold change
1,"GMPS (peptide sequence: GLQKEEVVLLTHGDSVDKVADGFK, peptide start residue: 142) (UniProt P49915)",0.228
2,"UniProt P48741 (peptide sequence: VEILANDQGNR, peptide start residue: 28)",0.119
3,"PPP3CC (peptide sequence: QTIETATVEAVEAR, peptide start residue: 436) (UniProt P48454)",-0.119
4,"YARS (peptide sequence: KLASAAYPDPSK, peptide start residue: 335) (UniProt P54577)",0.196
5,"POLD2 (peptide sequence: VPVATYTNSSQPFR, peptide start residue: 27) (UniProt P49005)",0.269
6,"RBM25 (peptide sequence: KLVPLDYGEDDKNATK, peptide start residue: 711) (UniProt P49756)",-0.133
7,"HCFC1 (peptide sequence: SPDGAHLTWEPPSVTSGK, peptide start residue: 1902) (UniProt P51610)",0.432
8,"RAP1GDS1 (peptide sequence: LMDLLDR, peptide start residue: 362) (UniProt P52306)",0.342
9,"UniProt P52758 (peptide sequence: AAYQVAALPK, peptide start residue: 108)",-0.051
10,"MVD (peptide sequence: QVAPESHWPELR, peptide start residue: 185) (UniProt P53602)",0.448
11,"DAP (peptide sequence: GDKDFPPAAAQVAHQKPHASMDK, peptide start residue: 66) (UniProt P51397)",-0.227
12,"ALDH1A3 (peptide sequence: IAFTGSTEVGK, peptide start residue: 259) (UniProt P47895)",-0.0882
13,"CNN1 (peptide sequence: GASQAGMTAPGTKR, peptide start residue: 213) (UniProt P51911)",0.316
14,"GCLM (peptide sequence: KKCPSTHSEELHDCIQK, peptide start residue: 33) (UniProt P48507)",-0.166
15,"MTIF2 (peptide sequence: DAQVPIILAVNKCDKAEADPEK, peptide start residue: 278) (UniProt P46199)",0.474
16,"ZFP36L2 (peptide sequence: HSASNLHALAHPAPSPGSCSPK, peptide start residue: 56) (UniProt P47974)",0.371
17,"CCT4 (peptide sequence: IDDVVNTR, peptide start residue: 532) (UniProt P50991)",-0.163
